Measurements from patent US8722711B2, “Acylbenzene derivative” (Daiichi Sankyo Company, Limited, priority 2010, dated 2014).
Some results were stated once for a whole list of compounds, not compound by compound.

Tested on: Male C57/BL6J mice
Assay: Mouse oGTT (Oral Glucose Tolerance Test)
Format: in vivo
Conditions: fasted 16 to 17 hours, compound 10 mg/kg orally 30 minutes before oral glucose load, AUC from 5 minutes before to 120 minutes after glucose
Protocol: Mouse oGTT (Oral Glucose Tolerance Test)
A dosing preparation (1 mg/mL of each compound) was produced by suspending in a 0.5 w/v % methyl cellulose solution and then grinding in an agate mortar. Male C57/BL6J mice (Charles River Laboratories Japan, Inc.) were purchased at 6 to 8 weeks of age, and then used at 9 to 13 weeks of age. The mice were fasted from the hours of 17:00 to 18:00 on one day before the test day, and the test was started after 16 to 17 hours-fasting. Five mice were used for each group. Before dosing a compound, blood was collected from the tail vein. Thereafter, a suspension of the compound was orally administered at a dosage of 10 mg/kg. The 0.5 w/v % methyl cellulose solution was administered to a negative control group. […] Each of the blood samples was centrifuged to obtain the plasma, and the plasma glucose level (mg/dL) was measured with a glucose analyzer (Glucoloader GXT, A&T Corp.). The plasma glucose AUC (mg/dL min) in each mouse was calculated using the plasma glucose values at 5 minutes before and 15, 30, 60 and 120 minutes after the glucose administration. The arithmetic mean of the AUC value was calculated for each group and the percentage decrease in plasma glucose AUC (%) compared with the negative control group was calculated as an index of the efficacy.

## 4-(5-{(1R)-1-[4-(Cyclopropylcarbonyl)phenoxy]propyl}-1,2,4-oxadiazol-3-yl)-N-[(1R,2S,3R)-2,3-dihydroxycyclopentyl]-2-fluorobenzamide, and 4-(5-{(1R)-1-[4-(cyclopropylcarbonyl)phenoxy]propyl}-1,2,4-oxadiazol-3-yl)-N-[(1S,2R,3S)-2,3-dihydroxycyclopentyl]-2-fluorobenzamide [Example 20]
  percentage decrease in plasma glucose AUC (%) compared with the negative control group: more than 20%
